{"source": "PubChem BioAssay AID1159584 (Peter MacCallum Cancer Centre, 2016)", "screen": "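Genes whose loss is lethal only together with E-cadherin loss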 (primary screen)", "cell system": "human MCF10A breast epithelial cells, parental and CDH1-null", "reagents": "siRNA against human genes", "read-out": "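Cell viability by CellTiter-Glo ATP luminescence, each line scaled to the mean of mock wells across plates, then CDH1-null over parental ratio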", "scale": "CDH1-null / parental viability ratio: higher = CDH1-null cells survive relatively better than parental", "note": "The whole screen tested about 18,000 reagents; below is a part drawn at random. Further read-outs or replicates are left out here. Not stated in the record: the amount of reagent, the time to read-out."}
The first 3 records, ahead of the listing:
{"target gene":"SCRN2 (secernin 2)","CDH1-null / parental viability ratio":1.19}
{"target gene":"VGF (VGF nerve growth factor inducible)","CDH1-null / parental viability ratio":0.89}
{"target gene":"MICA (MHC class I polypeptide-related sequence A)","CDH1-null / parental viability ratio":1}

Results, from the first entry:
{"target gene":"SCRN2 (secernin 2)","CDH1-null / parental viability ratio":1.19}
{"target gene":"VGF (VGF nerve growth factor inducible)","CDH1-null / parental viability ratio":0.89}
{"target gene":"MICA (MHC class I polypeptide-related sequence A)","CDH1-null / parental viability ratio":1}
{"target gene":"PAGE4 (PAGE family member 4)","CDH1-null / parental viability ratio":0.97}
{"target gene":"NCCRP1 (NCCRP1, F-box associated domain containing)","CDH1-null / parental viability ratio":0.98}
{"target gene":"EXOSC2 (exosome component 2)","CDH1-null / parental viability ratio":0.84}
{"target gene":"KRT10-AS1 (KRT10 antisense RNA 1)","CDH1-null / parental viability ratio":0.99}
{"target gene":"P2RY11 (purinergic receptor P2Y11)","CDH1-null / parental viability ratio":1.31}
{"target gene":"OVOS2P (ovostatin 2, pseudogene)","CDH1-null / parental viability ratio":0.92}
{"target gene":"PPP1R14D (protein phosphatase 1 regulatory inhibitor subunit 14D)","CDH1-null / parental viability ratio":1.14}
{"target gene":"DEFB105B (defensin beta 105B)","CDH1-null / parental viability ratio":0.91}
{"target gene":"RPN1 (ribophorin I)","CDH1-null / parental viability ratio":0.98}
{"target gene":"KLK2 (kallikrein related peptidase 2)","CDH1-null / parental viability ratio":1.17}
{"target gene":"SIAH3 (siah E3 ubiquitin protein ligase family member 3)","CDH1-null / parental viability ratio":1}
{"target gene":"CKMT1B (creatine kinase, mitochondrial 1B)","CDH1-null / parental viability ratio":1.1}
{"target gene":"GRAMD1B (GRAM domain containing 1B)","CDH1-null / parental viability ratio":1.03}
{"target gene":"ZNF436-AS1 (ZNF436 antisense RNA 1)","CDH1-null / parental viability ratio":0.82}
{"target gene":"NEDD9","CDH1-null / parental viability ratio":1.15}
{"target gene":"RPS11 (ribosomal protein S11)","CDH1-null / parental viability ratio":1}
{"target gene":"NACA (nascent polypeptide associated complex subunit alpha)","CDH1-null / parental viability ratio":1}
{"target gene":"RUSC2 (RUN and SH3 domain containing 2)","CDH1-null / parental viability ratio":1.38}
{"target gene":"TMEM50B (transmembrane protein 50B)","CDH1-null / parental viability ratio":1.14}
{"target gene":"SETX (senataxin)","CDH1-null / parental viability ratio":1}
{"target gene":"GTSE1 (G2 and S-phase expressed 1)","CDH1-null / parental viability ratio":0.81}
{"target gene":"VMA12 (vacuolar ATPase assembly factor VMA12)","CDH1-null / parental viability ratio":0.78}
{"target gene":"THNSL2 (threonine synthase like 2)","CDH1-null / parental viability ratio":1.04}
{"target gene":"ZBTB17 (zinc finger and BTB domain containing 17)","CDH1-null / parental viability ratio":0.92}
{"target gene":"AP1S3 (adaptor related protein complex 1 subunit sigma 3)","CDH1-null / parental viability ratio":0.95}
{"target gene":"ZBED3 (zinc finger BED-type containing 3)","CDH1-null / parental viability ratio":0.82}
{"target gene":"DEPDC5 (DEP domain containing 5, GATOR1 subcomplex subunit)","CDH1-null / parental viability ratio":1.23}
{"target gene":"DEPTOR (DEP domain containing MTOR interacting protein)","CDH1-null / parental viability ratio":0.98}
{"target gene":"GJB7 (gap junction protein beta 7)","CDH1-null / parental viability ratio":0.84}
{"target gene":"OR2J2 (olfactory receptor family 2 subfamily J member 2)","CDH1-null / parental viability ratio":1.31}
{"target gene":"ZNF157 (zinc finger protein 157)","CDH1-null / parental viability ratio":1.3}
{"target gene":"BMX (BMX non-receptor tyrosine kinase)","CDH1-null / parental viability ratio":1.12}
